Experimental data published in article PMC3181323.
These are yes or no findings as the source states them, for the method shown. In cells and extracts the contact can be indirect. Some entries that bind do so weakly or less than the wild type.

Chains of the proteins cited; added tags and fusions are not shown.
UniProt Q80Y84: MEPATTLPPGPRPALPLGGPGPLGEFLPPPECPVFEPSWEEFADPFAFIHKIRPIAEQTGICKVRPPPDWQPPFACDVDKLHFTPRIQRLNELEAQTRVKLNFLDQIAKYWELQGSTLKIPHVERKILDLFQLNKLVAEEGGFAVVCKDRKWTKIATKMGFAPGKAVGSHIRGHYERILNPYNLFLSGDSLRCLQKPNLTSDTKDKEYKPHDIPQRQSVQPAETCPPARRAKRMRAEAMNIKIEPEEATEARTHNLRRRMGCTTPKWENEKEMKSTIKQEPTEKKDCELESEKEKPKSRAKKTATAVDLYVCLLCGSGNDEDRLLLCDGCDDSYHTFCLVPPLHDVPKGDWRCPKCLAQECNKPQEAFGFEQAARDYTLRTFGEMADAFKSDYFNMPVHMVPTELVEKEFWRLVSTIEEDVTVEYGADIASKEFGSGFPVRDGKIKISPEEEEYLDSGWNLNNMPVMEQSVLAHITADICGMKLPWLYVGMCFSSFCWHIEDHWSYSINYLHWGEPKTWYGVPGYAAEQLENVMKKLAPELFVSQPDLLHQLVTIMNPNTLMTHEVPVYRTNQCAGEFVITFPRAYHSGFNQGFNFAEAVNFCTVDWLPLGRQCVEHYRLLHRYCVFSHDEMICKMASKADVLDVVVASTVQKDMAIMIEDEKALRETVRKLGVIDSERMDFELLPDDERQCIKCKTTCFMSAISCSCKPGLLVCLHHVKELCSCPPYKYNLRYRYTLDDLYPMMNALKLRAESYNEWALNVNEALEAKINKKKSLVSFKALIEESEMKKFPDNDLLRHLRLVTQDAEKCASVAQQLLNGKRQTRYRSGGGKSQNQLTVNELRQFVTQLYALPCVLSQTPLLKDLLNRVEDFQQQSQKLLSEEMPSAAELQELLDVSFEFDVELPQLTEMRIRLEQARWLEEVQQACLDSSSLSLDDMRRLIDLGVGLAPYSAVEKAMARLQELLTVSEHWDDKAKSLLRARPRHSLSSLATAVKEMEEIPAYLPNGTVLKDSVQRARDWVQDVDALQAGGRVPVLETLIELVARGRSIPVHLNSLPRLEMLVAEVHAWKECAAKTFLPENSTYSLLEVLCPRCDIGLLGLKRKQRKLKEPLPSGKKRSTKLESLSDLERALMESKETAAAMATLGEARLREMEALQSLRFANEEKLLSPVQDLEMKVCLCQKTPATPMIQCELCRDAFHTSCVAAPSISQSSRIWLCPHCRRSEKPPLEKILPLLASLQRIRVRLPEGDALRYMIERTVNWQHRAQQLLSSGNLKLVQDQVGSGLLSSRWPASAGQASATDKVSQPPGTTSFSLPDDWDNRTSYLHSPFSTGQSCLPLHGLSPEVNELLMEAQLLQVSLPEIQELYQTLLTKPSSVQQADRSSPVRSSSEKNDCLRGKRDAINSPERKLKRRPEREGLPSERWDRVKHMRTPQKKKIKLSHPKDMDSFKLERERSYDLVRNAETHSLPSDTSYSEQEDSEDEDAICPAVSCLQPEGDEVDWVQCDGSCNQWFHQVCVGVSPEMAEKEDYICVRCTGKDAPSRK

Biological target: Jarid1b (Kdm5b) (mouse (endogenous in MN-tsLT)) (UniProt Q80Y84)
Test: co-IP; total cell lysate of 8x10^6 senescent MN-tsLT cells (4 days at 39°C); immunoprecipitation of endogenous Jarid1b with 8 µl anti-Jarid1b (#3273, Cell Signaling Technology) in ELB (250 mM NaCl, 50 mM Hepes pH 7.3, 0.1% NP40, protease inhibitors); western blot with anti-Rb (#554136, BD Pharmingen)

B1: Rb (protein, UniProt P13405 1-921)
chain: MPPKAPRRAAAAEPPPPPPPPPREDDPAQDSGPEELPLARLEFEEIEEPEFIALCQKLKVPDHVRERAWLTWEKVSSVDGILEGYIQKKKELWGICIFIAAVDLDEMPFTFTELQKSIETSVYKFFDLLKEIDTSTKVDNAMSRLLKKYNVLCALYSKLERTCELIYLTQPSSALSTEINSMLVLKISWITFLLAKGEVLQMEDDLVISFQLMLCVVDYFIKFSPPALLREPYKTAAIPINGSPRTPRRGQNRSARIAKQLENDTRIIEVLCKEHECNIDEVKNVYFKNFIPFINSLGIVSSNGLPEVESLSKRYEEVYLKNKDLDARLFLDHDKTLQTDPIDSFETERTPRKNNPDEEANVVTPHTPVRTVMNTIQQLMVILNSASDQPSENLISYFNNCTVNPKENILKRVKDVGHIFKEKFANAVGQGCVDIGVQRYKLGVRLYYRVMESMLKSEEERLSIQNFSKLLNDNIFHMSLLACALEVVMATYSRSTLQHLDSGTDLSFPWILNVLNLKAFDFYKVIESFIKVEANLTREMIKHLERCEHRIMESLAWLSDSPLFDLIKQSKDGEGPDNLEPACPLSLPLQGNHTAADMYLSPLRSPKKRTSTTRVNSAANTETQAASAFHTQKPLKSTSLALFYKKVYRLAYLRLNTLCARLLSDHPELEHIIWTLFQHTLQNEYELMRDRHLDQIMMCSMYGICKVKNIDLKFKIIVTAYKDLPHAAQETFKRVLIREEEFDSIIVFYNSVFMQRLKTNILQYASTRPPTLSPIPHIPRSPYKFSSSPLRIPGGNIYISPLKSPYKISEGLPTPTKMTPRSRILVSIGESFGTSEKFQKINQMVCNSDRVLKRSAEGGNPPKPLKKLRFDIEGADEADGSKHLPAESKFQQKLAEMTSTRTRMQKQRMNESKDVSNKEEK
binding: binds
